The target of the experiment is chondroitin sulfate proteoglycan 4 (CSPG4) (human) (UniProt Q6UVK1). Nature of the experiment: flow cytometry of soluble scFv on CSPG4+ MDA-MB-231 cells (Protein L-biotin, streptavidin-PE).

Chains of the proteins cited; added tags and fusions are not shown. Residues count along the entry.
UniProt Q6UVK1, residues 30-2322: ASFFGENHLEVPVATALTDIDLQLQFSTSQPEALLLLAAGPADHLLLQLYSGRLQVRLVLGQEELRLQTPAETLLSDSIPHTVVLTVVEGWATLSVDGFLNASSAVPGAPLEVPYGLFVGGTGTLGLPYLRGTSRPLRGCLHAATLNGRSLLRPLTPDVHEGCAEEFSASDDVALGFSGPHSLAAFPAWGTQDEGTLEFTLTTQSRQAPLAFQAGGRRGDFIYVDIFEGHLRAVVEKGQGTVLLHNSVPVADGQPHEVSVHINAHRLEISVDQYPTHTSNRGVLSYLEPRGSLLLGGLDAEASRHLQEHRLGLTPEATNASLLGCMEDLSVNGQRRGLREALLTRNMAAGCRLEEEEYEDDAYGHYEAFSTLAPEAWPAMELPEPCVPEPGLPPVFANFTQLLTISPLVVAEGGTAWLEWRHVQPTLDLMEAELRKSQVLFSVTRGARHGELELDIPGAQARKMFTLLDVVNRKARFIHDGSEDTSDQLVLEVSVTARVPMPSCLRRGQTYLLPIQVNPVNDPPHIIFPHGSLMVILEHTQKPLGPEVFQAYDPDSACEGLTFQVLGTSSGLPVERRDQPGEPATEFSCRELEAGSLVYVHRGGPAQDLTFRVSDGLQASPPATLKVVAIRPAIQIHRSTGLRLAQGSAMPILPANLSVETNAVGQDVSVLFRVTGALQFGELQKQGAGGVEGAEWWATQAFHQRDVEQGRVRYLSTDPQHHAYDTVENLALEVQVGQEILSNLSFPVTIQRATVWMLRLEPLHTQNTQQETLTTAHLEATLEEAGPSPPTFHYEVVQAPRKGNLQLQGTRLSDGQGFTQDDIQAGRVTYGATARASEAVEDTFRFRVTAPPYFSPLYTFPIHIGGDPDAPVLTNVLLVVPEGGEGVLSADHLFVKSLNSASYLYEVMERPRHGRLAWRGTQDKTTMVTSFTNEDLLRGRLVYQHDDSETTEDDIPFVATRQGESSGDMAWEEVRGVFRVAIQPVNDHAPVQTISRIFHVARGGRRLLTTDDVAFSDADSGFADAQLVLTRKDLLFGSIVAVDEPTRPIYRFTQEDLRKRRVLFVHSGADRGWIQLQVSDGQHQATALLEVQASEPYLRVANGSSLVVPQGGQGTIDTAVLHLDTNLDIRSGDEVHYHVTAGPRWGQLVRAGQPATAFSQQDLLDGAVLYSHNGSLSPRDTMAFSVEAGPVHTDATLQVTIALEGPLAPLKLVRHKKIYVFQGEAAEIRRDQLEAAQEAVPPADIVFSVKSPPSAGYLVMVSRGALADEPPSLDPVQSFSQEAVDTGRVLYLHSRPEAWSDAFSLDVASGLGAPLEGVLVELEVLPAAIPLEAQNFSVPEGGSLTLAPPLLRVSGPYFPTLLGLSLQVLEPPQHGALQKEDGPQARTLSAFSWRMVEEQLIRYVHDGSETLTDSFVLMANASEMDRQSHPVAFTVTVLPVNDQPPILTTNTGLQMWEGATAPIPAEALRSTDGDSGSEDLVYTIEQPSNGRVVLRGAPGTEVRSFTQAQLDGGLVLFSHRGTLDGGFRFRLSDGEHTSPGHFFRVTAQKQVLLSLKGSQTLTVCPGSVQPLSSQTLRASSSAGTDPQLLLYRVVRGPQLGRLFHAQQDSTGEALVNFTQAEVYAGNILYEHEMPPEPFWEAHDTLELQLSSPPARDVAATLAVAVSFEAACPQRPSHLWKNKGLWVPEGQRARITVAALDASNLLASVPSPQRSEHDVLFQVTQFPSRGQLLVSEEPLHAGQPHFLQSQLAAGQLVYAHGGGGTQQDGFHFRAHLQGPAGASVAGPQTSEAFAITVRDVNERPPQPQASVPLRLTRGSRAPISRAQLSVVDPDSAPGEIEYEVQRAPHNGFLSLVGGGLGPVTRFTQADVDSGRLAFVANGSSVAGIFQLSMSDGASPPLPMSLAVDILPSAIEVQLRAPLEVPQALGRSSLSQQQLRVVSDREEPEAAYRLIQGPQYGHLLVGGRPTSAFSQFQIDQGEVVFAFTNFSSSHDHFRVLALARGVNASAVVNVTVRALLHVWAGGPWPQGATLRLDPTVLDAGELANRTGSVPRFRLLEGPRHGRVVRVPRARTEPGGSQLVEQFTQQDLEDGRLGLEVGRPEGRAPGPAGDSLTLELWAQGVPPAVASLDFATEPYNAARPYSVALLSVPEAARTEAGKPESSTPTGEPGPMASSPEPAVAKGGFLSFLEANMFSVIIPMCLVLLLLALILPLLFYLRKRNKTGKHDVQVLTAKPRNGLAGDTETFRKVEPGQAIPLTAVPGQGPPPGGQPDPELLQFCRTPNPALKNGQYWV

No constants are given. Whether binding was seen depends on the method and setting. Some entries that bind do so weakly or less than the wild type.

B1: humanized scFv h763.74(#5) (scFv)
scFv: MEIVMTQSPSTLSASVGDRVIITCRASQTIYKNLHWYQQKPGKSPKLLIKYGSDSISGVPSRFSGSGSGTEYTLTISSLQPDDFATYYCLQGYSTPWTFGQGTKLTVLGGGGGSGGGGSGGGGSGGGGSQVQLVESGGGLVQPGGSLRLSCTASGYTFTDYSMHWVRKAPGKGLEWVGWINTATGEPTYADDFKGRFTISLDTSKNTVYLQMNSLRAEDTAVYFCASYYDYWGQGTLVTVSS
Turning to B1, the binding result is “binds”.

B2: humanized scFv h763.74(#2) (scFv)
scFv: MDIKLTQSPSILSASVGDRVIITCRASQTIYKNLHWYQQKPHRSPRLLIKYGSDSISGIPSRFSGSGSGTEYTLTISSLQPDDFAIYYCLQGYSTPWTFGGGTKLTVLGGGGGSGGGGSGGGGSGGGGSQVQLVESGGGLVQPGGSLRLSCTASGYTFTDYSMHWVRKTPGKGLKWVGWINTATGEPTYADDFKGRFTISLDTSKNTVYLQMNSLRAEDTATYFCFSYYDYWGQGTTVTVSS
As to B2, the binding result is “binds”.

The values above are taken from US20230242666A1.
